Reference: PMC7819943, “Rice protein-binding microarrays: a tool to detect cis-acting elements near promoter regions in rice”
Some of the results follow.

The chains behind the UniProt entries cited, without tags or fusion partners.
UniProt Q0JBA9, entry or part of it: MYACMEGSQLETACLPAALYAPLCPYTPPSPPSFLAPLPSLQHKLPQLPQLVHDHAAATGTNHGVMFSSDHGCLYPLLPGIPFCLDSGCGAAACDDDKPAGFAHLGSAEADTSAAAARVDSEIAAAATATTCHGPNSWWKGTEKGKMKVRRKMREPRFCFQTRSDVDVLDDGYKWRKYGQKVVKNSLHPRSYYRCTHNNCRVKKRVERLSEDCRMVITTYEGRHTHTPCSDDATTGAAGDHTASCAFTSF

The sequences below were run against OsWRKY34 (Oryza sativa, UniProt Q0JBA9 1-250) (assay: protein-binding microarray (RPBM); PBS, 2% BSA, 51.3 ng/ul salmon testes DNA, 50 uM zinc acetate, 200 nM TF, 25 C, 1 h; high values mean tight binding). Settings: protein: recombinant; tags: N-terminal polyhistidine and DsRed monomer fusion (pET32a); label: CyDye5-dUTP incorporated in the synthesized complementary strand; 3' TTTTT single-stranded linker to array surface; dsDNA, one strand shown.
In short: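 Transcription factors, each fused N-terminally to a polyhistidine tag and DsRed, were expressed in E. coli BL21-CodonPlus and purified on Ni–NTA. A custom Agilent array was made double-stranded by primer extension with Cy5-dUTP and blocked with 2% BSA. It was incubated with 200 nM protein in PBS, 2% BSA, salmon testes DNA and 50 µM zinc acetate at 25 °C for 1 h, then washed. The binding signal is per-feature fluorescence intensity (arbitrary units) read on an Axon 4000B scanner.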

Row | Sequence | binding signal
1 | GCCATAAGTTTCCGTGTCCAACTCATCTTATTTGAAATTTCGGAGTCACCTAGTGCAG | 11500 fluorescence intensity (a.u.)
2 | GCGGACAGCGCCGTCTCTGCTGTCTCTCTCTGTATGCTTCCGGAGTCACCTAGTGCAG | 9040 fluorescence intensity (a.u.)
3 | ATGACATCGTTGGTTTTCTTAATTTGGCTTTTTATAGATACGGAGTCACCTAGTGCAG | 8760 fluorescence intensity (a.u.)
4 | CCTTCCTTACCTACGTGCGATTCCTCTTCTCTTCCGCGCCCGGAGTCACCTAGTGCAG | 9700 fluorescence intensity (a.u.)
5 | CATTCTTAACTATGGACTTGGACTTCTTAGCAGTTATTTTCGGAGTCACCTAGTGCAG | 8330 fluorescence intensity (a.u.)
6 | CCGCTTGTCGTTGGAGCCCCGTCGCATGATGCCGACGCGCCGGAGTCACCTAGTGCAG | 9740 fluorescence intensity (a.u.)
7 | GCCACCGCCTCCCCTCCCGCGCGTACGCCGCGGCCGCCAACGGAGTCACCTAGTGCAG | 9520 fluorescence intensity (a.u.)
8 | TTGCTGTTCTTTTTTTCCCCTCTCTCTTTTAATACTTTTACGGAGTCACCTAGTGCAG | 9760 fluorescence intensity (a.u.)
9 | TCCATCGCGCGTCGTCTCCACCTTTGTTGCTTGTGCCACCCGGAGTCACCTAGTGCAG | 10200 fluorescence intensity (a.u.)
10 | AATAAGACGAATGGTCAAACATGTACTAAAAAGTCAACGGCGGAGTCACCTAGTGCAG | 13200 fluorescence intensity (a.u.)
11 | GCTCTCCTTGCTGTCAAGTCGGCCCTCGGCAACCCGCCGGCGGAGTCACCTAGTGCAG | 8310 fluorescence intensity (a.u.)
12 | CATCTTGTCTTCGTCTTCCCCACTTGGAATCCTTCACTTCCGGAGTCACCTAGTGCAG | 9320 fluorescence intensity (a.u.)
13 | TAGCCGGGGCAGCCCACAACTGACATATTATTCTCATGATCGGAGTCACCTAGTGCAG | 9170 fluorescence intensity (a.u.)
14 | AAATTTCGATGTTCATTTTTTATCGCCTCGCCTTGCATATCGGAGTCACCTAGTGCAG | 8370 fluorescence intensity (a.u.)
15 | CGTCACGCAGGCCTCCGTCGCGCCCACCGTCGCCACCTACCGGAGTCACCTAGTGCAG | 8990 fluorescence intensity (a.u.)
16 | TTCCATCCCCATCCAGGACTTTGATGATCTCTTCTCTTGACGGAGTCACCTAGTGCAG | 8200 fluorescence intensity (a.u.)
17 | TTATATCAGAAATCAACAGCGTCATCTACTTCCTCTGTTTCGGAGTCACCTAGTGCAG | 8830 fluorescence intensity (a.u.)
18 | ATAGCCAACTATTACTTTTAAATTATTTATAGTCAAATTTCGGAGTCACCTAGTGCAG | 9190 fluorescence intensity (a.u.)
19 | ATTAGCTGAATCCATCTGACCCAAATTTCTTCTCTATTAGCGGAGTCACCTAGTGCAG | 8620 fluorescence intensity (a.u.)
20 | ACGATGATTATGTACGATTTACGGTTGTGTATTTCATAGTCGGAGTCACCTAGTGCAG | 8460 fluorescence intensity (a.u.)
21 | TCTGCATCCCATACGCACACAATACCTCCATCGTATGCCACGGAGTCACCTAGTGCAG | 9080 fluorescence intensity (a.u.)
22 | CCTACCACGATCTCCGGCGTCCCCATCCGCGCCTCCAACTCGGAGTCACCTAGTGCAG | 8650 fluorescence intensity (a.u.)
23 | GCGCACTGGTTAAATCCGTATTTTTTTTTCTCACGTATCTCGGAGTCACCTAGTGCAG | 9650 fluorescence intensity (a.u.)
24 | GCTCAGCCGCCGTCGCCAGTCCAACCTCCGCCACCGCGGCCGGAGTCACCTAGTGCAG | 8640 fluorescence intensity (a.u.)
25 | CTTGGTGTCTTTATCGTGTTTGGATCTCCTATGGCGTATCCGGAGTCACCTAGTGCAG | 8300 fluorescence intensity (a.u.)
26 | TGCACGTGGATCAGAAGCACACCTACCGGTCCAATTTACCCGGAGTCACCTAGTGCAG | 8550 fluorescence intensity (a.u.)
27 | AAACCCCTTGTCGTCTTCTCCATTGCGACACTGAAACTCACGGAGTCACCTAGTGCAG | 10600 fluorescence intensity (a.u.)

Exported as comma-separated lines: entries from further up.
Row,Sequence,binding signal
13,TAGCCGGGGCAGCCCACAACTGACATATTATTCTCATGATCGGAGTCACCTAGTGCAG,9170 fluorescence intensity (a.u.)
14,AAATTTCGATGTTCATTTTTTATCGCCTCGCCTTGCATATCGGAGTCACCTAGTGCAG,8370 fluorescence intensity (a.u.)
19,ATTAGCTGAATCCATCTGACCCAAATTTCTTCTCTATTAGCGGAGTCACCTAGTGCAG,8620 fluorescence intensity (a.u.)
24,GCTCAGCCGCCGTCGCCAGTCCAACCTCCGCCACCGCGGCCGGAGTCACCTAGTGCAG,8640 fluorescence intensity (a.u.)

The listing continues.

Row | Sequence | binding signal
28 | TTGCTCCCTGCTTTGGTTACTTGGCTACTTGCAATACACTCGGAGTCACCTAGTGCAG | 8930 fluorescence intensity (a.u.)
29 | GATTTTTTTTCCTGTTTATTTTTTTTGTTTTTTCTTTGAACGGAGTCACCTAGTGCAG | 13800 fluorescence intensity (a.u.)
30 | CGCTATCCGAACACAGCCTTAGTATTCTTCTGCAGCGGCCCGGAGTCACCTAGTGCAG | 10800 fluorescence intensity (a.u.)
31 | TCCCTATCTGTCTCCTCTCTCTCTCTCTCTCCTTGTGACTCGGAGTCACCTAGTGCAG | 10500 fluorescence intensity (a.u.)
32 | CCGTTTTTTATACATTATTATACCTTTTCTTGCTCTTTTGCGGAGTCACCTAGTGCAG | 9100 fluorescence intensity (a.u.)
33 | TATCTGCATGTTTCTGTTTTTTTTTCGAATAAACGCATGACGGAGTCACCTAGTGCAG | 8250 fluorescence intensity (a.u.)
34 | AATTCGGGGTTTGGGGCCGCGGAGGGGTGCTTACGTGAGTCGGAGTCACCTAGTGCAG | 15100 fluorescence intensity (a.u.)
35 | CACGTCTGGAAATGGGTGTCCGGCCTCTTCTTGCATCACTCGGAGTCACCTAGTGCAG | 10700 fluorescence intensity (a.u.)
36 | CTCCCTTTTTATCCTTTTTTTTTCTCCACTTTGCCTCCTTCGGAGTCACCTAGTGCAG | 11100 fluorescence intensity (a.u.)
37 | CCCCGGGCCAGAGCCGAACCATTTGGCCATCTATAACCCACGGAGTCACCTAGTGCAG | 8130 fluorescence intensity (a.u.)
38 | ACCGGTCCCTTTGTCAGTTATAAGCTATACATATCGATCGCGGAGTCACCTAGTGCAG | 8030 fluorescence intensity (a.u.)
39 | AACTTTTTCATGTCACTTCACTTTTTTTTGTTAGCAGCCTCGGAGTCACCTAGTGCAG | 11200 fluorescence intensity (a.u.)
40 | TCAATGCCCCAACCACATTTTGCGCCTCAGTTACTCCACTCGGAGTCACCTAGTGCAG | 9100 fluorescence intensity (a.u.)
41 | CATGTTAGTGTTGCATAGTTTAGTTATCCGTACAGTACTCCGGAGTCACCTAGTGCAG | 9600 fluorescence intensity (a.u.)
42 | AGAGGGATAGTACGGGTGTGTGTGATTACAAGTAGCTTTTCGGAGTCACCTAGTGCAG | 8670 fluorescence intensity (a.u.)
43 | GTCTCCGCGCGCGCTCTCTCTTTCGTTCACTCTCGCTTTCCGGAGTCACCTAGTGCAG | 14500 fluorescence intensity (a.u.)
44 | TGTGTAGTTTGTGAGGGCCAGAAGTTTCTTGGCAAGCTGTCGGAGTCACCTAGTGCAG | 8130 fluorescence intensity (a.u.)
45 | ACGTTTGACCCTTTGTTTTATTCAATTTTTTTGTGTAAATCGGAGTCACCTAGTGCAG | 8290 fluorescence intensity (a.u.)
46 | TGTTGACTAATGCATGTTTCTCTCATCGATCTTATAGGTTCGGAGTCACCTAGTGCAG | 9450 fluorescence intensity (a.u.)
47 | TACTGATGAGCCACTGACGGGTGGGGCCAGTTGACTGACACGGAGTCACCTAGTGCAG | 8850 fluorescence intensity (a.u.)
48 | ATTAGTGGCCTGATCTGATTCAAATCTCACACCCGCAAAACGGAGTCACCTAGTGCAG | 9200 fluorescence intensity (a.u.)
49 | TCGTCATATCAGGAGCTGCATGCAATGTCGATTTGTTTCCCGGAGTCACCTAGTGCAG | 8530 fluorescence intensity (a.u.)
50 | GCTGAGTTTGGCCTGGCTAGATAGATACATATGCAACCGTCGGAGTCACCTAGTGCAG | 8210 fluorescence intensity (a.u.)
51 | CTTCATCATTTGGTGTGTGCGGGATGGCGGTTCTCATTTTCGGAGTCACCTAGTGCAG | 8120 fluorescence intensity (a.u.)
52 | CTATTGCAGTCTACCTCCTATCGTTTGTCTGCTTTCTTTTCGGAGTCACCTAGTGCAG | 11500 fluorescence intensity (a.u.)
53 | GTTGCAGTAGCTTGTCGACTTTGTACCATGTTGTTTGAGACGGAGTCACCTAGTGCAG | 10100 fluorescence intensity (a.u.)
54 | CCATCTGAATTCACATTTAAGTTAATCGGCCACTCTGTTTCGGAGTCACCTAGTGCAG | 8340 fluorescence intensity (a.u.)
